Experimental data as given in PMC12047801, “Disrupting the OTUD4-USP7 deubiquitinase complex to suppress herpesvirus replication: a novel antiviral strategy” (PLOS Pathogens, 2025).
These are yes or no findings as the source states them, for the method shown. For part of these data: Binding seen in cells or lysates may run through a third protein. Some binding calls cover weakened binding; strength is not graded here. For part of these data: Tags and fused reporters may be left off the sequences shown.

Amino acid sequences for entries named in this document (tags omitted). Residues count along the entry.
UniProt Q6A4J8, residues 1-208: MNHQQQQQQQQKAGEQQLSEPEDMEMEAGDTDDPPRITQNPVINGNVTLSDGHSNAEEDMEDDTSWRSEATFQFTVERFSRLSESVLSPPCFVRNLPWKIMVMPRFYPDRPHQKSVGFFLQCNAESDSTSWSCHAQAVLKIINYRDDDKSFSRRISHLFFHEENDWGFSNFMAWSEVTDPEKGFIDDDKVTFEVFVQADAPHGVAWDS

Columns and labels:
[1] = target: GST-USP7-murine TRAF WT (murine) (UniProt Q6A4J8); experiment: pull-down; competition: as the GST pull-down, with peptides (100 μM) included throughout the incubation; pair of GST-USP7-TRAF and FLAG-OTUD4; only the target purified
[2] = target: GST-USP7-murine TRAF WT (murine) (UniProt Q6A4J8); experiment: pull-down; only the target purified
[3] = target: USP7 (endogenous in SLK.iBAC-GFP cells) (human (endogenous in SLK.iBAC-GFP)) (UniProt Q93009); experiment: proximity ligation; only the binder purified
[4] = target: GST-USP7-murine TRAF WT (murine) (UniProt Q6A4J8); experiment: pull-down; both purified
GST-USP7-TRAF WT (human) = GST-USP7-TRAF WT (human) (UniProt Q93009); experiment: pull-down; both purified
[5] = target: Recombinant USP7-TRAF protein (human) (UniProt Q93009); experiment: SPR; both purified

B1: FLAG-mOTUD4 (protein, UniProt B2RRE7 1-1107)
chain: MEAAVGAPDGVDQGGVGPLEDETPMDAYLRKLGLYRKLVAKDGSCLFRAVAEQVLHSQSRHVEVRMACIRYLRENREKFEAFIEGSFEEYLKRLENPQEWVGQVEISALSLMYRKDFVIYQEPNVSPSHVTENNFPEKVLLCFSNGNHYDIVYPITYKDSSAMCQSLLYELLYEKVFKTDVSKIMMGLEASEVAEESNSEISDSEDDSCKSKSTAATDVNGFKPSGSENPKNNGNSADLPLSRKVLKSLNPAVYRNVEYEIWLKSKQAQQKRDYSIAAGLQYEVGDKCHQVRLDHNGKLSNADIHGVHSENGLVLSEELGKKHTPKNLKPPPPESWNTVSGKKMKKPNSGQNFHSDTDYRGPKNLNKPIKAPSALPPRLQHPSSGVRQHAFSSHSTGSQSQKSSSEHKNLSRMPSQITRKPDRERAEDFDHVSRESYYFGLSPEERREKQAIEESRLLYEIQNRDEQAFPALSSSSVSQSPSQNSNACVPRKSSHARDRKGSMRRADAEERKDKDSLRGHTHVDKKPEPSTLEISDDKCTRVSSPSKSKKECPSPVEQKPAEHIPLSNPAPLLVSPEVHLTPAVPSLPATVPAWPSEPTTFGPTGVPAQIPILSVTQTTGPDAAVSQAHLTPSPVPVSIQAVNQPLMPLPQTMSLYQDPLYPGFPCSEKGDRAIAPPYSLCQTGEDLPKDKNILRFFFNLGVKAYSCPMWAPHSYLYPLHQAYMAACRMYPKVPVPVYPQNTWFQEAPPAQSESDCPCTDAHYSLHPEASVNGQMPQAEMGPPAFASPLVIPPSQVSEGHGQLSYQPELESENPGQLLHAEYEESLSGKNMYPQQSFGPNPFLGPVPIAPPFFPHVWYGYPFQGFVENPVMRQNIVLPPDDKGELDLPLENLDLSKECDSVSAVDEFPDARVEGAHSLSAASVSSKHEGRVEQSSQTRKADIDLASGSSAVEGKGHPPTQILNREREPGSAEPEPKRTIQSLKEKPEKVKDPKTAADVVSPGANSVDRLQRPKEESSEDENEVSNILRSGRSKQFYNQTYGSRKYKSDWGSSGRGGYQHVRGEESWKGQPNRSRDEGYQYHRHVRGRPYRGDRRRSGMGDGHRGQHT
binding [1]: binds | binding [2]: binds

YGRKKRRQRRRGGVNQSASQSSN (acetylated at the N-terminus; amidated at the C-terminus) [p8 fused to an N-terminal Tat(47-57) peptide via a GG linker]
binding [3]: binds | binding [4]: binds | binding (GST-USP7-TRAF WT (human)): binds

NSSQSASQNVPPRRRQRRKKRGY [p8-DRI (D-retro-inverso p8)]
binding [5]: binds
